From the supplement of paper PMC7661543
Differences between knockout arms are mostly noise.

Columns and labels:
HCC-38 = assay: relative cell number vs DMSO control (72 h) (% of DMSO); higher = less growth inhibition (more cells)
Experimental: (§1)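 QMAP-Seq: a pool of 5 breast cancer cell lines (ZR-75-1, SKBR3, HCC-38, MDA-MB-231, BT-20), each carrying 12 doxycycline-inducible Cas9 sgRNA perturbations (11 knockouts plus non-targeting sgNT), was treated with compounds for 72 h at four 10-fold doses (10 nM-10 uM or 1 nM-1 uM range). Barcodes were amplified and sequenced, and cell number was interpolated from 293T spike-in standard curves. The result is expressed as % of the median of DMSO wells. Two biological replicates.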

BT-20 = assay: as above
Experimental: as §1

c1cc(Nc2cc(C3CC3)[nH]n2)nc(Nc2ccc3nc[nH]c3c2)n1 [APY29]
relative cell number
Conditions | BT-20 | HCC-38
sgRNA knockout: sgATF3, 10 nM | 115 | 92.6
sgRNA knockout: sgATF3, 100 nM | 95.9 | 61.8
sgRNA knockout: sgATF3, 1000 nM | 73.2 | 28.9
sgRNA knockout: sgATF3, 10000 nM | 37.8 | 22.9
sgRNA knockout: sgATF4, 10 nM | 118 | 91.9
sgRNA knockout: sgATF4, 100 nM | 106 | 67.1
sgRNA knockout: sgATF4, 1000 nM | 75.8 | 27.7
sgRNA knockout: sgATF4, 10000 nM | 40.9 | 24.1
sgRNA knockout: sgATF6, 10 nM | 105 | 111
sgRNA knockout: sgATF6, 100 nM | 92.8 | 78.9
sgRNA knockout: sgATF6, 1000 nM | 92.7 | 28.9
sgRNA knockout: sgATF6, 10000 nM | 34.9 | 27.9
sgRNA knockout: sgATG7, 10 nM | 110 | 93.4
sgRNA knockout: sgATG7, 100 nM | 82.8 | 63.38
sgRNA knockout: sgATG7, 1000 nM | 89.57 | 26.1
sgRNA knockout: sgATG7, 10000 nM | 36.7 | 22.4
sgRNA knockout: sgERN1, 10 nM | 111 | 97.5
sgRNA knockout: sgERN1, 100 nM | 93.9 | 66.4
sgRNA knockout: sgERN1, 1000 nM | 70.4 | 26.5
sgRNA knockout: sgERN1, 10000 nM | 36.3 | 24.6
sgRNA knockout: sgHSF1, 10 nM | 103 | 101
sgRNA knockout: sgHSF1, 100 nM | 79.6 | 72.4
sgRNA knockout: sgHSF1, 1000 nM | 64.4 | 26.1
sgRNA knockout: sgHSF1, 10000 nM | 36.8 | 22.2
sgRNA knockout: sgHSF2, 10 nM | 128 | 107
sgRNA knockout: sgHSF2, 100 nM | 76.6 | 65.8
sgRNA knockout: sgHSF2, 1000 nM | 73.8 | 28
sgRNA knockout: sgHSF2, 10000 nM | 42.6 | 30.1
sgRNA knockout: sgKEAP1, 10 nM | 112 | 121
sgRNA knockout: sgKEAP1, 100 nM | 80.3 | 80.3
sgRNA knockout: sgKEAP1, 1000 nM | 76.8 | 34.2
sgRNA knockout: sgKEAP1, 10000 nM | 41.8 | 23.8
sgRNA knockout: sgNFE2L2, 10 nM | 105 | 88.9
sgRNA knockout: sgNFE2L2, 100 nM | 85.6 | 60.6
sgRNA knockout: sgNFE2L2, 1000 nM | 76.2 | 27.8
sgRNA knockout: sgNFE2L2, 10000 nM | 33.6 | 23.6
sgRNA knockout: sgSLC35F2, 10 nM | 109 | 82
sgRNA knockout: sgSLC35F2, 100 nM | 88.7 | 66.5
sgRNA knockout: sgSLC35F2, 1000 nM | 84.4 | 31.8
sgRNA knockout: sgSLC35F2, 10000 nM | 45.6 | 24.2
sgRNA knockout: sgXBP1, 10 nM | 104 | 98.7
sgRNA knockout: sgXBP1, 100 nM | 91.3 | 65.5
sgRNA knockout: sgXBP1, 1000 nM | 80.1 | 30
sgRNA knockout: sgXBP1, 10000 nM | 41.7 | 24.5
